# Percent effect of library compounds

Measurements from “University of Dundee, Small-Polar-MMV Screening Library” (2021), ChEMBL document CHEMBL3988442.

Results are given as percent effect.
The controls that fix the scale are not given in the record; negative values are as filed.
Compounds were drawn at random from those tested, without regard to their results.

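Whole-parasite assay of Trypanosoma brucei over 72 hours; the read-out is not stated. Tested at 30 µM. Higher reads as stronger inhibition (inferred: compounds with an IC50 in retests scored well above the rest). Values scatter widely below zero; nearly all retest evidence comes from the higher of the two concentrations used. About 64,000 compounds were tested under these conditions; 1.5% (about 940) showed 50% or more at least once.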

Result for Cc1nc(C)n(C2CCCN(C(=O)c3sccc3C3CC3)C2)n1 (stereo unspecified) was -49.81%.
Result for COc1ccc(N(C)C(=O)c2cccc(S(C)(=O)=O)c2)cn1 was 1.11%.
Result for COc1cc(C)nc(N2CCN(C(=O)c3ccccc3C)CC2)n1 was 6.089%.
Result for c1cnn(CC2CN(c3ncnc4ccsc34)CCO2)c1 (stereo unspecified) was -28.93%.
Result for COC(=O)C1(NCc2nc(C)c(C)o2)CCC(C)CC1 (stereo unspecified) was -21.62%.
Result for Cc1nc2c(C#N)cnn2c(C)c1CCC(=O)N(C)C(C)C(C)C (stereo unspecified) was -59.91%.
Result for CC(C#N)CN(C)Cc1c(Cl)ccc2cccnc12 (stereo unspecified) was -16.32%.
Result for Nc1ncc(-c2cccc(NC(=O)[C@@H]3CCCCN3)c2)cn1 was 22.71%.
Result for Cc1cnc(C(C)(C)NC(=O)NCc2ccon2)s1 was 14.52%.
Result for CC(C(=O)Nc1ccccn1)n1ccc(C(F)(F)F)n1 (stereo unspecified) was -35.73%.
Result for CN(C)C(=O)N1CCC2(CC1)CCN(c1ncccn1)C2.O=C(O)C(F)(F)F was -41.17%.
Result for Cc1c[nH]c(CN(C)C(=O)C(C)(C)NC(=O)c2cccs2)n1 was -32.2%.
Result for Cc1cc(NCc2ccco2)nc2[nH]nc(N)c12 was -39.29%.
Result for COc1cc(C(=O)N(Cc2cccs2)C2CC2)cc2c1OCCO2 was 8.363%.
Result for CCn1c(NCc2ccco2)nc2c(C)nn(C)c2c1=O was 1.696%.
Result for Cc1cc(NCCc2nc(C)cs2)nc(-c2cccnc2)n1 was -27.66%.
Result for O=C(C1CN(CC2CCOCC2)CC12CCOCC2)N1CCOCC1.O=C(O)C(F)(F)F (stereo unspecified) was -30.66%.
Result for Fc1ccc(-c2cnc(CNC3CCc4ncnn4C3)o2)cc1 (stereo unspecified) was -28.8%.
Result for Cc1ccc(CN2Cc3ccnn3CC(C(=O)NCC3CC3)C2)o1.O=C(O)C(F)(F)F.O=C(O)C(F)(F)F (stereo unspecified) was -12.67%.
Result for [H][C@]12CCC[C@@]1(COCc1cccnc1)CN(C(=O)c1cocn1)C2 was 41.71%.
Result for [H][C@]12CCNCC[C@@]1([H])S(=O)(=O)N(Cc1cccc(OC)c1)C2 was -73.82%.
Result for Cc1nc(C(=O)N(C)CC2CCCO2)nn1-c1ccccc1C(C)C (stereo unspecified) was -5.119%.
Result for CCn1nc2c(cc1=O)CN(CC(=O)Nc1nc(C)c(C)s1)CC2 was -3.863%.
Result for O=C(Cc1ccc(F)cc1)N1CCN(CC(O)c2ccccc2)CC1 (stereo unspecified) was -18.71%.
Result for COc1ccc(NC(=O)CCC2CCCN(S(=O)(=O)C3CC3)C2)cc1Cl (stereo unspecified) was 28.01%.
Result for Cc1ccc(C(=O)N2CCC3(CC2)NC(=O)CC3c2ccccc2)cn1.O=C(O)C(F)(F)F (stereo unspecified) was 1.179%.
Result for O=C(c1ccsc1)N1CCC2(CCN2Cc2ccc(F)cc2)C1 (stereo unspecified) was -74.57%.
Result for CCc1cc(NC(=O)c2cccc(OCC(F)(F)F)n2)[nH]n1 was -14.3%.
Result for Cc1ccc(CN2CCN(C(=O)CCc3nc(Cl)n[nH]3)CC2=O)cc1 was -71.03%.
Result for CCC(O)CN(Cc1cccc(C(=O)N(C)C)c1)c1ccccc1 (stereo unspecified) was -5.804%.
Result for Cc1cc(-c2cc3nc(C)c(C)c(NCC4COCCO4)n3n2)no1 (stereo unspecified) was -5.416%.
Result for CC(C)COC1CCN(C(=O)c2cc3ccccc3c(=O)[nH]2)CC1 was 1.697%.
Result for Clc1ccccc1OC1CN(CC2CCOC2)C1 (stereo unspecified) was -42.08%.
Result for [H][C@@]12CN(Cc3cnn(C)c3)C[C@]1([H])OCCN2CC1CCCC1 was -187.7%.
Result for O=S(=O)(NCC1COc2ccccc2C1)N1CCCC1 (stereo unspecified) was 2.937%.
Result for CCOCc1ccc(CNc2nc(OC)ncc2Cl)cc1 was 4.913%.
Result for CCc1sc(-c2nnc(CNC(C)Cn3cccn3)o2)cc1C (stereo unspecified) was 17.82%.
Result for O=C(NCCc1c[nH]c2ccc(F)cc12)C1(n2cnnn2)CCCCC1 was -12.7%.
Result for CN(C)Cc1csc(-c2nccn2Cc2ccsc2)c1 was 6.076%.
Result for Cc1ccc(C)c(OC2CCN(C(=O)c3ccc(C)[nH]c3=O)CC2)c1 was -2.447%.
Result for CCN1CCC2(CN(C(C)=O)CC23CCN(C(=O)N(C)C)CC3)C1=O (stereo unspecified) was -7.91%.
Result for CCCn1cc(NC(=O)NCC2CCS(=O)(=O)C2)nn1 (stereo unspecified) was -39.7%.
Result for CCn1nc(CC(C)C)cc1C(=O)NCCCN1CCOCC1 was -7.279%.
Result for Cc1c(CN2CCC(C(=O)O)(n3ccnc3)CC2)oc2ccccc12 was -4.086%.
Result for O=C(c1ccsc1)N1CCc2onc(CN3CCOCC3)c2C1 was -33.67%.
Result for O=C(O)C(F)(F)F.[H][C@@]12CCN(c3ccc(C)cc3)C[C@@]1([H])O[C@@H](C(=O)NCc1ccco1)C2 was 4.823%.
Result for CN1CC[C@]2(CN(C(=O)c3ccc[nH]3)C[C@H]2c2ccccc2)C1=O was -29.68%.
Result for CCc1c(O)nc(SCC(=O)N(CC)CC)n(C(C)CC)c1=O (stereo unspecified) was 6.473%.
Result for Cc1ccc(-c2noc(CN3CC(n4cc(C)cn4)C3)n2)cc1 was 11.42%.
Result for COc1ncc(C2(O)CCN(Cc3c(F)cccc3F)CC2)c(OC)n1.Cl was -3.796%.
Result for CC(NC(=O)C(C)(C)C#N)c1ccc(OCC2CC2)c(F)c1 (stereo unspecified) was 4.144%.
Result for COC[C@]1(O)CCN(C(=O)c2cccc(CN(C)C)c2)CC1(C)C was -24.35%.
Result for N#Cc1nccnc1N1CCC(OCCCc2ccccc2)C1 (stereo unspecified) was -8.503%.
Result for COc1ccc(Cl)cc1CN(C)C(=O)CN1C(=O)OC[C@@H]1C(C)C was -50.14%.
Result for COc1cc2c(cc1OC)C(=O)C(Sc1nnnn1C)C2 (stereo unspecified) was -15.96%.
Result for CN(C)c1cc(C(=O)N2CCN(S(C)(=O)=O)CC2)ccn1 was -0.6392%.

Repeated from the top, 5 entries:

| Compound | Percent Effect |
|---|---|
| `Cc1nc(C)n(C2CCCN(C(=O)c3sccc3C3CC3)C2)n1` (stereo unspecified) | -49.81 |
| `COc1ccc(N(C)C(=O)c2cccc(S(C)(=O)=O)c2)cn1` | 1.11 |
| `COc1cc(C)nc(N2CCN(C(=O)c3ccccc3C)CC2)n1` | 6.089 |
| `c1cnn(CC2CN(c3ncnc4ccsc34)CCO2)c1` (stereo unspecified) | -28.93 |
| `COC(=O)C1(NCc2nc(C)c(C)o2)CCC(C)CC1` (stereo unspecified) | -21.62 |